Values from PubChem BioAssay AID743454 (Peter MacCallum Cancer Centre, 2014).
Shown is a random part of about 18,000 reagents. 450 of them (2.5%) were called active. 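Single biological run; no consistent viability z cut-off exists, so the class columns, not z-scores, define the calls.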 Unmarked entries are inactive. Reagents against one gene are numbered here. Reagent sequences are not shown.

Aim: 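Genes whose loss kills vorinostat-resistant colon cancer cells under vorinostat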 (primary screen)
System: human HCT116-VR colon cancer cells, selected for vorinostat resistance
Knock-down reagent: siRNA pool against human genes, 40 nM siRNA pool
Duration: vorinostat for 24 h, read-out about 72 h after transfection
Conditions: vorinostat at 2.5 µM final
Measured: 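Two measures, CellTiter-Fluor viability and luminescent caspase 3/7 activity, each as fold change against same-plate mock wells, mean of duplicates, then screen-wide robust z-score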
Scale: viability robust z-score: higher = more viable cells than screen typical; caspase robust z-score: higher = more caspase 3/7 activity than screen typical
Call rule: 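Hits are knock-downs in viability class RV1/RV2 or caspase class CA1/CA2, excluding ones that killed cells in the no-drug cell-count arm; hits then retested with single siRNAs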

gene symbol	pool no.	viability hit class	caspase hit class	viability robust z-score	caspase robust z-score
LZTS1 (leucine zipper tumor suppressor 1)	1	no change	no change	-1.83	1.85
PPM1G (protein phosphatase, Mg2+/Mn2+ dependent 1G)	1	no change	no change	1.76	-0.19
S100A9 (S100 calcium binding protein A9)	1	no change	no change	-1.03	0.06
ORM1 (orosomucoid 1)	1	no change	no change	0.26	-0.72
RDH16 (retinol dehydrogenase 16)	1	no change	no change	-1.11	-1.16
TMEM121B (transmembrane protein 121B)	1	no change	no change	-2.76	4.52
MRTFB (myocardin related transcription factor B)	1	no change	no change	-0.12	1.93
LINC01565 (long independently transcribed non-coding RNA 1565)	1	no change	no change	-0.24	-0.18
ST6GALNAC2 (ST6 N-acetylgalactosaminide alpha-2,6-sialyltransferase 2)	1	no change	no change	0.96	4.29
TBCB (tubulin folding cofactor B)	1	no change	no change	-0.22	-0.85
RFX5 (regulatory factor X5)	1	no change	no change	-1.71	2.34
PLCB1 (phospholipase C beta 1)	1	no change	no change	0.53	-0.5
PECR (peroxisomal trans-2-enoyl-CoA reductase)	1	no change	no change	-0.18	-0.43
WFDC8 (WAP four-disulfide core domain 8)	1	no change	no change	0.08	-0.88
WSB1 (WD repeat and SOCS box containing 1)	1	no change	no change	-0.52	0.64
ALPL (alkaline phosphatase, biomineralization associated)	1	no change	no change	-1.12	3.09
CYP4F12 (cytochrome P450 family 4 subfamily F member 12)	1	no change	no change	0.67	0.28
CITED4 (Cbp/p300 interacting transactivator with ED-rich tail 4)	1	no change	no change	0.78	-0.02
CDK18 (cyclin dependent kinase 18)	1	no change	no change	-2.18	0.88
DNAI3 (dynein axonemal intermediate chain 3)	1	no change	no change	0.58	-0.38
KIAA1958	1	no change	no change	1.52	-0.9
RORA (RAR related orphan receptor A)	1	no change	no change	-1.07	1.27
KCTD20 (potassium channel tetramerization domain containing 20)	1	no change	no change	0.53	1.77
IPO5 (importin 5)	1	no change	no change	1.3	-0.48
GLCE (glucuronic acid epimerase)	1	no change	no change	0.02	1.34
CFAP44 (cilia and flagella associated protein 44)	1	no change	no change	1.51	-0.08
CLCN6 (Cl-/H+ antiporter 6)	1	no change	no change	-0.99	-1.11
LGALS3 (galectin 3)	1	no change	no change	0.28	-0.98
ZCCHC24 (zinc finger CCHC-type containing 24)	1	no change	no change	1.73	-0.27
NFX1 (nuclear transcription factor, X-box binding 1)	1	no change	no change	-0.2	-1.03
IFIT5 (interferon induced protein with tetratricopeptide repeats 5)	1	no change	no change	0.5	0.15
H3-3A (H3.3 histone A)	1	no change	no change	-0.71	-0.98
FRMPD4 (FERM and PDZ domain containing 4)	1	no change	no change	0.32	0.53
POLDIP2 (DNA polymerase delta interacting protein 2)	1	no change	no change	0.71	0.36
LHFPL3 (LHFPL tetraspan subfamily member 3)	1	no change	no change	-0.64	-0.8
SLC1A3	1	no change	no change	-2.62	0.82
ARLN (allregulin)	1	RV2 (reduced viability) (active)	no change	-3.08	0.22
FKBP14 (FKBP prolyl isomerase 14)	1	no change	no change	0.83	0.54
FAM117A (family with sequence similarity 117 member A)	1	no change	no change	-1.22	-0.4
TOMM40 (translocase of outer mitochondrial membrane 40)	1	no change	no change	-0.26	-0.64
CRY1 (cryptochrome circadian regulator 1)	1	no change	no change	-0.1	-0.93
ZBTB7B (zinc finger and BTB domain containing 7B)	1	no change	no change	0.76	-0.02
PTH2 (parathyroid hormone 2)	1	no change	no change	-0.33	1.45
SP8 (Sp8 transcription factor)	1	no change	no change	1.48	2.31
DRC2 (dynein regulatory complex subunit 2)	1	no change	no change	0.82	-0.92
UROC1 (urocanate hydratase 1)	1	no change	no change	-2.54	4.17
PRAMEF2 (PRAME family member 2)	1	no change	no change	1.54	-0.04
ACSS3 (acyl-CoA synthetase short chain family member 3)	1	no change	no change	0.26	0.24
GTPBP1 (GTP binding protein 1)	1	no change	no change	-1.03	1.28
APH1A (aph-1A gamma-secretase subunit)	1	no change	no change	-1.4	-0.4
OCLN (occludin)	1	no change	no change	1.49	-0.28
POLDIP3 (DNA polymerase delta interacting protein 3)	1	no change	no change	0.82	0.29
AXIN2 (axin 2)	1	no change	no change	0.88	-0.84
FAM91A1 (family with sequence similarity 91 member A1)	1	no change	no change	0.32	-0.54
FANCG (FA complementation group G)	1	no change	no change	0.8	1.25
UGP2 (UDP-glucose pyrophosphorylase 2)	1	no change	no change	0.43	0.55
LMCD1 (LIM and cysteine rich domains 1)	1	no change	no change	-0.3	0.03
GASK1B (golgi associated kinase 1B)	1	no change	no change	0.09	-0.52
COQ7 (coenzyme Q7, hydroxylase)	1	no change	no change	1.14	-0.73
KRT12 (keratin 12)	1	no change	no change	0.32	-0.84
ANGPTL4 (angiopoietin like 4)	1	no change	no change	-0.06	1.64
RAD9A (RAD9 checkpoint clamp component A)	1	no change	no change	-1.31	-0.45
TOP3A (DNA topoisomerase III alpha)	1	no change	no change	-0.36	1.36
WNK1 (WNK lysine deficient protein kinase 1)	1	no change	no change	-0.34	0.53
WNK1 (WNK lysine deficient protein kinase 1)	2	no change	no change	0.08	-0.62
FASLG (Fas ligand)	1	no change	no change	0.16	-1.23
HS3ST1 (heparan sulfate-glucosamine 3-sulfotransferase 1)	1	no change	no change	1.7	-0.95
HLA-DRB1 (major histocompatibility complex, class II, DR beta 1)	1	no change	no change	0.18	-0.38
NLGN3 (neuroligin 3)	1	no change	no change	-0.32	-1.13
NR3C1 (nuclear receptor subfamily 3 group C member 1)	1	no change	no change	0.21	0.06
HIPK3 (homeodomain interacting protein kinase 3)	1	no change	no change	-0.66	1.95
OR2L2 (olfactory receptor family 2 subfamily L member 2)	1	no change	no change	-0.82	-1.02
APLF (aprataxin and PNKP like factor)	1	no change	no change	0.19	1.64

Part of the list above, set out differently.
gene symbol,pool no.,viability hit class,caspase hit class,viability robust z-score,caspase robust z-score
TOMM40 (translocase of outer mitochondrial membrane 40),1,no change,no change,-0.26,-0.64
CRY1 (cryptochrome circadian regulator 1),1,no change,no change,-0.1,-0.93
ZBTB7B (zinc finger and BTB domain containing 7B),1,no change,no change,0.76,-0.02
PTH2 (parathyroid hormone 2),1,no change,no change,-0.33,1.45
SP8 (Sp8 transcription factor),1,no change,no change,1.48,2.31
DRC2 (dynein regulatory complex subunit 2),1,no change,no change,0.82,-0.92
UROC1 (urocanate hydratase 1),1,no change,no change,-2.54,4.17
PRAMEF2 (PRAME family member 2),1,no change,no change,1.54,-0.04
ACSS3 (acyl-CoA synthetase short chain family member 3),1,no change,no change,0.26,0.24
GTPBP1 (GTP binding protein 1),1,no change,no change,-1.03,1.28
APH1A (aph-1A gamma-secretase subunit),1,no change,no change,-1.4,-0.4
